Reference: PubChem BioAssay AID2685 (National Center for Advancing Translational Sciences (NCATS), 2010)
The other results are listed elsewhere or left out. Further columns of the screen follow, without active or inactive calls. The list favours compounds with an active or inconclusive main result. Potencies come from curve fits of mixed quality, noted in brackets.

Test: qHTS Assay for Lipid Storage Modulators in Drosophila S3 Cells;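 on cell number change: cells counted by Cell Tracker Red CMTPX staining in the red channel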
Settings: BODIPY lipid droplet fluorescence, 18-24 h; for cell number change: measured here: cell count max response, cells fed with added oleic acid
How it was run: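 Drosophila S3 cells loaded with oleic acid (400 uM, as added) and compounds at several concentrations; lipid droplets imaged by 488-nm laser-scanning cytometry, 500–530 nm intensity and object ratio to cell channel. Percent activity normalized to 20 uM Triacsin C.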

[1] = measured here: cell number channel AC50, cells fed with added oleic acid
[2] = measured here: lipid fluorescence (Fed channel) AC50, cells fed with added oleic acid

SMILES	cell number change [%]	AC50 [1]	AC50 [2]
Cc1cccc(NC(=O)CCCN2C(=S)NC(C)(C)CC2C)c1C (stereo not drawn)	-0.88	0.651 µM [falling, single point]	–
CC(C)[C@H](NC(=O)N1CC(=O)Nc2ccccc21)C(=O)N1CCC(C(=O)O)CC1	–	–	0.164 µM [rising, single point]
Cc1ccc(S(=O)(=O)Oc2ccc(/C=C(/NC(=O)c3ccccc3)C(=O)Nc3ccccc3)cc2)cc1	6.13	0.00461 µM [falling, full curve, poor fit]	–
CCOC(=O)C1=C(CNC(C)(C)CC(C)(C)C)NC(=O)NC1c1cccc([N+](=O)[O-])c1 (stereo not drawn)	6.37	–	29.1 µM [falling, single point]
Nc1cc(=O)[nH]c(SCC(=O)Nc2ccc(Br)cc2)n1	7.37	1.64 µM [falling, partial curve]	20.6 µM [falling, partial curve]
Cc1cc(N2CCN(C)CC2)nc2ccc(NC(=O)c3cccnc3Cl)cc12	-4.08	–	–
CCN(CC)c1ccc(C(=O)NNC(=O)c2ccc3c(=O)n4c(nc3c2)CCC4)cc1	-1.24	–	3.66 µM [rising, partial curve, poor fit]
O=C(Cn1c(=O)oc2ccccc21)Nc1nc(-c2ccc(Br)cc2)cs1	-14.3	–	–
O=C(NC1CCCC1)C(c1cccs1)N(C(=O)c1ccco1)c1ccc2c(c1)OCCO2 (stereo not drawn)	-4.63	–	0.731 µM [falling, full curve, poor fit]
CC(=O)Nc1ccc(/C(C)=N/NC(=O)c2ccccc2Cl)cc1	-4.64	–	0.461 µM [rising, partial curve]
Cc1ccc(C(=O)OCC(=O)NCc2ccco2)s1	-59.3	18.4 µM [falling, single point]	18.4 µM [falling, single point]
CCOc1cc(CNC(C)(C)C)ccc1OCC(=O)Nc1cccc(C(F)(F)F)c1	31.3	–	–
CCOc1ccc(CCNC(=O)CSc2n[nH]c(N)n2)cc1OCC	27.9	–	13 µM [rising, partial curve, poor fit]
CN1CCN(C(=O)CCCN2C(=O)/C(=C/c3ccccc3)SC2=S)CC1	–	–	0.231 µM [falling, full curve]
O=C(NCCCN1CCOCC1)c1cc(-c2cccs2)on1	-35.9	–	0.164 µM [falling, full curve, poor fit]
O=C(Nc1ccc(Cl)c(C(F)(F)F)c1)C1CCCN(S(=O)(=O)c2cnc[nH]2)C1 (stereo not drawn)	12.4	–	–
COc1ccc(NC(=S)NCCN2CCC(C)CC2)cc1	3.65	–	1.12 µM [falling, full curve]
COc1ccc(S(C)(=O)=O)cc1S(C)(=O)=O	-9.26	–	–
CCOC(=O)N1CCC(NC(=O)C2CCN(C(=O)N3CC(C)Oc4ccc(C)cc43)CC2)CC1 (stereo not drawn)	-17.5	0.326 µM [falling, full curve, poor fit]	–
CC1CCCc2sc3nc(NCc4ccco4)n4ncnc4c3c21 (stereo not drawn)	-37	14.6 µM [falling, single point]	18.4 µM [falling, single point]

A second format for some results above:

| SMILES | cell number change [%] | AC50 [1] | AC50 [2] |
| --- | --- | --- | --- |
| CCN(CC)c1ccc(C(=O)NNC(=O)c2ccc3c(=O)n4c(nc3c2)CCC4)cc1 | -1.24 | – | 3.66 µM [rising, partial curve, poor fit] |
| O=C(Cn1c(=O)oc2ccccc21)Nc1nc(-c2ccc(Br)cc2)cs1 | -14.3 | – | – |

Later entries

SMILES	cell number change [%]	AC50 [1]	AC50 [2]
CCOC(=O)c1cc(C(C)=O)c(=O)[nH]c1C	-2.16	–	0.411 µM [rising, single point]
CC(=O)Nc1cccc(C(=O)N(Cc2ccccc2)Cc2ccccc2)c1	-33.9	25.9 µM [falling, single point]	20.6 µM [falling, single point]
O=C(NNC(=O)C1CCCC1)c1ccc(F)cc1	24.6	–	–
CCOc1ccc(Cn2c(=O)sc3ccccc32)cc1OC	12.2	–	2.91 µM [rising, partial curve]
COc1ccccc1NC(=O)NC(=O)N(C(C)C)S(C)(=O)=O	47.1	29.1 µM [rising, single point]	29.1 µM [rising, single point]
Cc1nnsc1-c1nnc(SCC(=O)c2ccccc2)n1C1CC1	9.74	–	6.51 µM [rising, single point]
COC(=O)CSc1snnc1-c1ccc(Cl)cc1Cl	-29.9	–	29.1 µM [falling, single point]
O=C1CSC(c2cccs2)N1c1ccccc1 (stereo not drawn)	-1.12	–	0.259 µM [falling, full curve, poor fit]
CCCCn1c(N)c(N(CCOC)C(=O)c2ccc(NC3CC3)c([N+](=O)[O-])c2)c(=O)[nH]c1=O	–	–	5.17 µM [rising, full curve]
Cc1ccc(C(=O)NN=C2CCCCCC2)s1	-1.98	–	14.6 µM [rising, partial curve]
Cc1ccc(C(=O)NCCNC(=O)c2ccccc2)cc1	-6.86	–	25.9 µM [falling, partial curve]
O=C(O)CC/C(=N\NC(=O)c1ccc(F)cc1)c1ccc(Br)cc1	74.2	4.61 µM [rising, full curve]	–
CC(C)CNc1nc(N)c([N+](=O)[O-])c(NCC2CCCO2)n1 (stereo not drawn)	–	–	5.17 µM [rising, partial curve]
Cc1c(OCC(=O)NCC2CCC(C(=O)NCCCO)CC2)ccc2c(-c3ccccc3)cc(=O)oc12 (stereo not drawn)	0.895	–	1.46 µM [rising, partial curve, poor fit]
CN1/C(=C/C=C(C#N)C#N)C(C)(C)c2ccccc21	–	–	18.4 µM [falling, single point]
CCN(CC)CCN(C(=O)c1cc2c(ccc3ccccc32)oc1=O)c1nc2cc3c(cc2s1)OCCO3	1.51	–	–
CCOC(=O)N1CCN(CC(O)c2ccccc2)CC1 (stereo not drawn)	50.8	0.731 µM [rising, partial curve]	–
OC(c1cc(C(F)(F)F)nc2c(Cl)cc(Cl)cc12)C1CCCCN1 (stereo not drawn)	-49.1	25.9 µM [falling, single point]	23.1 µM [falling, single point]
Cn1c(=O)c2c(nc(NN=C3CCCCC3)n2C)n(C)c1=O	22.2	–	20.6 µM [rising, single point]
O=C(Cc1ccccc1)NCCn1ccc2ccccc21	–	–	3.66 µM [falling, partial curve, poor fit]
